Measured values reported in publication PMC6990902.
These are yes or no findings as the source states them, for the method shown. In cells and extracts the contact can be indirect. Some entries that bind do so weakly or less than the wild type.

The chains behind the UniProt entries cited, without tags or fusion partners.
UniProt P23677: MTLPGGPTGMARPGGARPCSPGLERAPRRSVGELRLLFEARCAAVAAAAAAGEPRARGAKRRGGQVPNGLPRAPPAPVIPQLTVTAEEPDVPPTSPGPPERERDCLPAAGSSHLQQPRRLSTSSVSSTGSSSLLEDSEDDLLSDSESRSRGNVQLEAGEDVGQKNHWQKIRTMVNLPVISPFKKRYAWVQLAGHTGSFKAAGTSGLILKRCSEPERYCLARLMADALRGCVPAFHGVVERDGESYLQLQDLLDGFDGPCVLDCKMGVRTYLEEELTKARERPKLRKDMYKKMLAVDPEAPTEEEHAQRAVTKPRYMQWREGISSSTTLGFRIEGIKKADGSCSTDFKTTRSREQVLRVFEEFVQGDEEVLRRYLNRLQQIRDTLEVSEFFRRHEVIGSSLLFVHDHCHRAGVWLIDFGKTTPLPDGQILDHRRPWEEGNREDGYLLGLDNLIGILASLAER

B1: Drebrin 1 (DBN1) (protein, UniProt Q16643 1-649)
chain: MAGVSFSGHRLELLAAYEEVIREESAADWALYTYEDGSDDLKLAASGEGGLQELSGHFENQKVMYGFCSVKDSQAALPKYVLINWVGEDVPDARKCACASHVAKVAEFFQGVDVIVNASSVEDIDAGAIGQRLSNGLARLSSPVLHRLRLREDENAEPVGTTYQKTDAAVEMKRINREQFWEQAKKEEELRKEEERKKALDERLRFEQERMEQERQEQEERERRYREREQQIEEHRRKQQTLEAEEAKRRLKEQSIFGDHRDEEEETHMKKSESEVEEAAAIIAQRPDNPREFFKQQERVASASAGSCDVPSPFNHRPGSHLDSHRRMAPTPIPTRSPSDSSTASTPVAEQIERALDEVTSSQPPPLPPPPPPAQETQEPSPILDSEETRAAAPQAWAGPMEEPPQAQAPPRGPGSPAEDLMFMESAEQAVLAAPVEPATADATEIHDAADTIETDTATADTTVANNVPPAATSLIDLWPGNGEGASTLQGEPRAPTPPSGTEVTLAEVPLLDEVAPEPLLPAGEGCATLLNFDELPEPPATFCDPEEVEGESLAAPQTPTLPSALEELEQEQEPEPHLLTNGETTQKEGTQASEGYFSQSQEEEFAQSEELCAKAPPPVFYNKPPEIDITCWDADPVPEEEEGFEGGD

Tests used:
[1] = molecular target: T1, Drebrin 1 (DBN1) (human (endogenous in H1299)) (UniProt Q16643); test: co-IP; endogenous proteins from total protein of H1299 cells (RIPA lysis buffer with protease inhibitors); Pierce co-immunoprecipitation kit; precipitated with anti-ITPKA or, in reverse, anti-DBN1 antibody; normal serum IgG as negative control; detected by western blot
T1 sequence: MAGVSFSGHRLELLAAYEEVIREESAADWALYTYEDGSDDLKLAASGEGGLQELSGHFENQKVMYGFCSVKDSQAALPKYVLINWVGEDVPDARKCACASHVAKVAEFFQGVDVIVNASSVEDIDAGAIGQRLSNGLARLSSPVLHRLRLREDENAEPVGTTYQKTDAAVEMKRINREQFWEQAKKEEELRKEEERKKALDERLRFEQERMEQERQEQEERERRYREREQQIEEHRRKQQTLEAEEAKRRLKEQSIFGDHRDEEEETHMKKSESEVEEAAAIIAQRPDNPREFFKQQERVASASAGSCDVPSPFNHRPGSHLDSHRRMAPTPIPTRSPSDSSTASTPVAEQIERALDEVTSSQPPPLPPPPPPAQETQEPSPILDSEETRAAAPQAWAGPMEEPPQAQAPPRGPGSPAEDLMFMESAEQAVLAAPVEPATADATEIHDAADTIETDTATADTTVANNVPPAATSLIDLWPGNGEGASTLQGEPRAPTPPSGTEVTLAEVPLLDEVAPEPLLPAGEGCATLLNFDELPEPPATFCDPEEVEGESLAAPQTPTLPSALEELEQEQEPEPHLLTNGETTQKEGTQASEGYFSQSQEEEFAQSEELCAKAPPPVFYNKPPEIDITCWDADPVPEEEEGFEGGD

[2] = molecular target: ITPKA (inositol 1,4,5-trisphosphate 3-kinase) (human (endogenous in H1299)) (UniProt P23677); test: as above

Molecule | binding [1] | binding [2]
ITPKA (inositol 1,4,5-trisphosphate 3-kinase) (from UniProt P23677 1-461) | binds | 
B1 |  | binds
